# Test results: publication PMC10256740
# Results are given in words; binding and its absence hold for the method and conditions named. Binding seen in cells or lysates may run through a third protein. Some results given as binding are weak or reduced against the parent protein; the word gives no strength.
# T1: endogenous MBNL1 (mouse (endogenous in N2A)) (UniProt Q9JKP5)
# T1 sequence: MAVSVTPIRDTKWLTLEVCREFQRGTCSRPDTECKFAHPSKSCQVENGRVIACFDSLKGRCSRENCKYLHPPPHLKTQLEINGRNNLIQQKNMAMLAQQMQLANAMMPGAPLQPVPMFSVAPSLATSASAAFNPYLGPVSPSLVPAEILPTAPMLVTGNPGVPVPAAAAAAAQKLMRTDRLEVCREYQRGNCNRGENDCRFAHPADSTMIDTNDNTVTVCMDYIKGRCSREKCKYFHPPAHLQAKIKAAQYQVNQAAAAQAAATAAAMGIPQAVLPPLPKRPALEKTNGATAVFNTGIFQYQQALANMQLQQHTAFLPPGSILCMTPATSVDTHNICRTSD
# Biological target: T1, endogenous MBNL1 (mouse (endogenous in N2A))
# Experiment: co-IP; endogenous proteins, N2A lysate (1% NP-40, 0.1% sodium deoxycholate, 0.05% SDS, Benzonase); rabbit anti-MBNL1 or normal rabbit IgG on protein A Dynabeads overnight at 4 °C; high-salt washes (1 M NaCl); western blot
binder,measurement,value
"endogenous Kif1c (protein, UniProt O35071 1-1100) MAGASVKVAVRVRPFNARETSQDAKCVVSMQGNTTSIINPKQSKDAPKSFTFDYSYWSHTSVEDPQFASQQQVYRDIGEEMLLHAFEGYNVCIFAYGQTGAGKSYTMMGRQEPGQQGIVPQLCEDLFSRVNVNQSAQLSYSVEVSYMEIYCERVRDLLNPKSRGSLRVREHPILGPYVQDLSKLAVTSYADIADLMDCGNKARTVAATNMNETSSRSHAVFTIVFTQRSHDQLTGLDSEKVSKISLVDLAGSERADSSGARGMRLKEGANINKSLTTLGKVISALADLQSKKRKSDFIPYRDSVLTWLLKENLGGNSRTAMIAALSPADINYEETLSTLRYADRTKQIRCNAVINEDPNARLIRELQEEVARLRDLLMAQGLSASALGGLKVEEGSPGGVLPPASSPPAPASPSSPPPHNGELEPSFSPSAEPQIGPEEAMERLQETEKIIAELNETWEEKLRKTEALRMEREALLAEMGVAVREDGGTVGVFSPKKTPHLVNLNEDPLMSECLLYHIKDGVTRVGQVDVDIKLTGQFIREQHCLFRSIPQPDGEVMVTLEPCEGAETYVNGKLVTEPLVLKSGNRIVMGKNHVFRFNHPEQARLERERGVPPPPGPPSEPVDWNFAQKELLEQQGIDIKLEMEKRLQDLENQYRKEKEEADLLLEQQRLYADSDSGEDSDKRSCEESWRLISSLREQLPPTTVQNIVKRCGLPSSGKRRAPRRVYQIPQRRRLQGKDPRWATMADLKMQAVKEICYEVALADFRHGRAEIEALAALKMRELCRTYGKPEGPGDAWRAVARDVWDTVGEEEGCGGGGGGSEEGARGAEVEDLRAHIDKLTGILQEVKLQNSSKDRELQALRDRMLRMERVIPLTQDLEDDNDESGLVTWAPPEGPEAVEETVPNDHSPAVRPTSPPLSSWERVSRLMEEDPAFRRGRLRWLKQEQLRLQGLQGAGGRGGGLRRPPARFVPPHDCKLRFPFKSNPQHRESWPGMGSGEAPAPQPPEEVTVPPAPPNRRPPSPRRPHRSRRNSLDGGSRSRGGGSTQPEPQHLRPQKHNGYPQQPQPSPAQRPGPRYPPYTTPPRMRRQRSAPDLKESGAAV",binding,binds
